Laboratory results from the supplement of paper PMC10849652.
This is one part of the list.

Protein sequences, listed by entry. Tags and fused reporters are not part of them. Lines headed by an entry give the natural chain unless they say otherwise; changes in a name come on top.
UniProt O75586: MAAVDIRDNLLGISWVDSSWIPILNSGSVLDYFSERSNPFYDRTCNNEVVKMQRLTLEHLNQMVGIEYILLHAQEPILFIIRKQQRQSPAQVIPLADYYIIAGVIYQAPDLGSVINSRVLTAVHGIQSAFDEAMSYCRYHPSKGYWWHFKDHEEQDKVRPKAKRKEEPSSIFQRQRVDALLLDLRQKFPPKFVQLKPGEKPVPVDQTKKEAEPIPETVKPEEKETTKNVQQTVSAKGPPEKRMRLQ
UniProt Q9H1A3: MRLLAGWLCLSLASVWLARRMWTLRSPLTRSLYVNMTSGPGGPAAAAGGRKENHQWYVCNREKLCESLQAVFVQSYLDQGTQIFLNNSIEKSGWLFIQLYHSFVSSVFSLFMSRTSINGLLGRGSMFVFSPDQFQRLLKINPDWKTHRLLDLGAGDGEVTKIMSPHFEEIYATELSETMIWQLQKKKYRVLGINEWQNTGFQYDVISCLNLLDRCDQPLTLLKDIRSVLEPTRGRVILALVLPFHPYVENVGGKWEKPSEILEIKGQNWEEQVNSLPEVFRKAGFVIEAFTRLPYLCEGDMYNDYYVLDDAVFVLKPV
UniProt Q6UX53: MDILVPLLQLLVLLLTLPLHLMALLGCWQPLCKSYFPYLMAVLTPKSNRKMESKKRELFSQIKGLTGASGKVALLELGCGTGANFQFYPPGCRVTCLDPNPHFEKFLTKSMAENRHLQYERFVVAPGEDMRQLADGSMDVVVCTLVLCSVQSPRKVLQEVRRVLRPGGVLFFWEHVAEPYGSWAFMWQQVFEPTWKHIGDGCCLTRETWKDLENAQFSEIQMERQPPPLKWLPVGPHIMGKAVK
UniProt Q86YT6, whole entry, looked up: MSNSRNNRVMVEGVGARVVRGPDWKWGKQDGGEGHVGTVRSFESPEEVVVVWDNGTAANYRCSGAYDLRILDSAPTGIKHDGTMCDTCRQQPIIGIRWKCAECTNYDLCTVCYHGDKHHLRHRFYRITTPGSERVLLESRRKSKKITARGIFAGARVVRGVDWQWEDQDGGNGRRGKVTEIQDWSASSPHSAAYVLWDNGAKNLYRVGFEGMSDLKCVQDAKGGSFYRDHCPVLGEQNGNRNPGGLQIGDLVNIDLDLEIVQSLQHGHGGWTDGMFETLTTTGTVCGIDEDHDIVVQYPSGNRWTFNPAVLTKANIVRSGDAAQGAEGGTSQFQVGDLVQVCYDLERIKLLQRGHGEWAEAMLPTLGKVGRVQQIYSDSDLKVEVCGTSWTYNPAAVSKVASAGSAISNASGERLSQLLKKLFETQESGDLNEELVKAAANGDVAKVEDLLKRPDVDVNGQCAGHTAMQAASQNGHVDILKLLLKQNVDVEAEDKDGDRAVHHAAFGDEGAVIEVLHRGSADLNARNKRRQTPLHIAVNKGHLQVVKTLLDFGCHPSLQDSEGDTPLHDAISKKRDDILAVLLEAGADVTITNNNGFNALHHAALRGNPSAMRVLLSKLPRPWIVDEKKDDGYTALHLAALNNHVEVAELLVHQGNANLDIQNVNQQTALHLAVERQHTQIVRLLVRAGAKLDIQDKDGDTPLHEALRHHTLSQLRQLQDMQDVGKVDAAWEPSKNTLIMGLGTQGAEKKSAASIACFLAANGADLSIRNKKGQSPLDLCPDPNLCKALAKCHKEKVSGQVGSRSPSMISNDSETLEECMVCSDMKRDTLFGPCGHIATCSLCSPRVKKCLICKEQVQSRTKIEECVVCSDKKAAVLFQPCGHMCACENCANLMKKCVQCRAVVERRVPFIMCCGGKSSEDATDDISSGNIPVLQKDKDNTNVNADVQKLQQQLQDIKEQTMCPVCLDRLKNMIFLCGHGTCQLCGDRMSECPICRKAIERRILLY
UniProt Q96KG7: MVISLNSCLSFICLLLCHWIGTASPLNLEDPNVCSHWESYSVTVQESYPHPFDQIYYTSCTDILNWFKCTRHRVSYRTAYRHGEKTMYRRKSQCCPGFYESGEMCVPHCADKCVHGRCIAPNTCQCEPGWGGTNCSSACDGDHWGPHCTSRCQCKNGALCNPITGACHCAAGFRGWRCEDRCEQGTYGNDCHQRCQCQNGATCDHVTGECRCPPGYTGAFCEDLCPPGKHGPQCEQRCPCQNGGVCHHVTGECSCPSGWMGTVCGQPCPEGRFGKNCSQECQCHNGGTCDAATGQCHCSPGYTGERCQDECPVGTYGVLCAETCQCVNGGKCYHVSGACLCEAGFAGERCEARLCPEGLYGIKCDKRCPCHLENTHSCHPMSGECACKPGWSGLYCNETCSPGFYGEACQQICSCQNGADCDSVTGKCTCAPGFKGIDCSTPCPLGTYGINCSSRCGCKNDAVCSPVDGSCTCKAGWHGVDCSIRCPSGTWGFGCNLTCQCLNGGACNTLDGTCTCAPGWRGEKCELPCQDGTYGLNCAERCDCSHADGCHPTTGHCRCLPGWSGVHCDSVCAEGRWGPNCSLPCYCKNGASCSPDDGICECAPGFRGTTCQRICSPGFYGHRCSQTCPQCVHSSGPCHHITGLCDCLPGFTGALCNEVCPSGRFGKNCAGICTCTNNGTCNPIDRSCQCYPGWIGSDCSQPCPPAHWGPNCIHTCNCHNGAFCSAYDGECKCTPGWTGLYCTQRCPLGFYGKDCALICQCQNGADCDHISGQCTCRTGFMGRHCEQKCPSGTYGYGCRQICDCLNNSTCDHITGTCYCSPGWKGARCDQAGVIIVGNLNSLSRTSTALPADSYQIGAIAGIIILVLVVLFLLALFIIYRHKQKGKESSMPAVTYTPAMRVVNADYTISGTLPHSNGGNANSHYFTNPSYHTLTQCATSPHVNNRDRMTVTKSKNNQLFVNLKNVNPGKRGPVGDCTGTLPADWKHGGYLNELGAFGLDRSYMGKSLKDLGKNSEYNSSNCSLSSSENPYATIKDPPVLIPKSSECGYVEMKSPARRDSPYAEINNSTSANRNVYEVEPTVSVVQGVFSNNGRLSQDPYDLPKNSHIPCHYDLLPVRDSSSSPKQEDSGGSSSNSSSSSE
UniProt Q06413, whole entry, looked up: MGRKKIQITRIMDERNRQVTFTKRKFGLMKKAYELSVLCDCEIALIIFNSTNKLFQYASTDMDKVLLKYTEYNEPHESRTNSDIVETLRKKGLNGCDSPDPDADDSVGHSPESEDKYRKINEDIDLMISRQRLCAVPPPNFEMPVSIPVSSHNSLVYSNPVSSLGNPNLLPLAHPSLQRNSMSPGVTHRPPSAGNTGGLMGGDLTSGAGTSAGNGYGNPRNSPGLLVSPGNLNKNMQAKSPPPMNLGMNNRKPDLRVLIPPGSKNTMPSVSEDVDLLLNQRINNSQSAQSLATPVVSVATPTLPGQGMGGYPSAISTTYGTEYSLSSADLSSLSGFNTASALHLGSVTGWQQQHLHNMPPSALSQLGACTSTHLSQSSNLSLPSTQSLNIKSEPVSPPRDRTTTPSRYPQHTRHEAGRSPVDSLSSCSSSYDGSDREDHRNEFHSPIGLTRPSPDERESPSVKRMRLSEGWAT
UniProt Q9NWA0: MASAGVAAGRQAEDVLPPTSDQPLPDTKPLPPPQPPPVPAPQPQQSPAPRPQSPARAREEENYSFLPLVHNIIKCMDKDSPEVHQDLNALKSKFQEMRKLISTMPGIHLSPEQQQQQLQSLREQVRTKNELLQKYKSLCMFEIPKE
UniProt A0JLT2: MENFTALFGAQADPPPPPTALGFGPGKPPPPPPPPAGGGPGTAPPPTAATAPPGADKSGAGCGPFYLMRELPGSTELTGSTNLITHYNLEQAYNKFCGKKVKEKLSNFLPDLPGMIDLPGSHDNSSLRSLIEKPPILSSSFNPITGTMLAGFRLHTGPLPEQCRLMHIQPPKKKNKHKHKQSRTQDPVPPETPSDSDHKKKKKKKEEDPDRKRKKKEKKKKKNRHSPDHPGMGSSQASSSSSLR
UniProt Q9Y6X3: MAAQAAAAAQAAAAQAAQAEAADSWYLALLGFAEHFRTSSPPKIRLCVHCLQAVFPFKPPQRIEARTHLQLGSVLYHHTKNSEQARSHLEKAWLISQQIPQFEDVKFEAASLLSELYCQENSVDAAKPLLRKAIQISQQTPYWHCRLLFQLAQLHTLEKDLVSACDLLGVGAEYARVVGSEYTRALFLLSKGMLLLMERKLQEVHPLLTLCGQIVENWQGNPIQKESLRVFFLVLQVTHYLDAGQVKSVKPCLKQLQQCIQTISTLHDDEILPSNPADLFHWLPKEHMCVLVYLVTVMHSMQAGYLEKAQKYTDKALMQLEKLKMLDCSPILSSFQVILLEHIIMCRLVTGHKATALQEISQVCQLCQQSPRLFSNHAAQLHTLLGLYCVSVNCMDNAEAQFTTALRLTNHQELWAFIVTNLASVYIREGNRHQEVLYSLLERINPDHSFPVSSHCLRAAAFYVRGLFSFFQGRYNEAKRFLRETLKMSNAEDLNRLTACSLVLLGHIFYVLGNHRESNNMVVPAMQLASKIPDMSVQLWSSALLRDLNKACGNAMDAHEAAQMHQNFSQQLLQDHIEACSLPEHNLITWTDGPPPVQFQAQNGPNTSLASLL
UniProt O60291: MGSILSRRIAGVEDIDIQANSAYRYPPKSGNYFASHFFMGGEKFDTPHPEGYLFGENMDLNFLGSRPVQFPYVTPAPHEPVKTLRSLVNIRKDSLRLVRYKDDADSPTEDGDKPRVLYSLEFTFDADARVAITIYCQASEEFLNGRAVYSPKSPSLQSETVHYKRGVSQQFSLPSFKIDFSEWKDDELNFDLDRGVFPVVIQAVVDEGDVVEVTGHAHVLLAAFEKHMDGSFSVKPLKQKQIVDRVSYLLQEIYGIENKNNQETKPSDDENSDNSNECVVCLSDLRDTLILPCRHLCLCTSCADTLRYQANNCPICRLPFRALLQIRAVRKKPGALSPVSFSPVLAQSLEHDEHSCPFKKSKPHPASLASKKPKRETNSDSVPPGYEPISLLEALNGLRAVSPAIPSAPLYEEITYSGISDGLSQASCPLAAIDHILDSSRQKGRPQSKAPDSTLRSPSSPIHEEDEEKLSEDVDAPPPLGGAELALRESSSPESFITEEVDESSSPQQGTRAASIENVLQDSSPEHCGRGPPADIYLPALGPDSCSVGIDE
UniProt Q9H3U5: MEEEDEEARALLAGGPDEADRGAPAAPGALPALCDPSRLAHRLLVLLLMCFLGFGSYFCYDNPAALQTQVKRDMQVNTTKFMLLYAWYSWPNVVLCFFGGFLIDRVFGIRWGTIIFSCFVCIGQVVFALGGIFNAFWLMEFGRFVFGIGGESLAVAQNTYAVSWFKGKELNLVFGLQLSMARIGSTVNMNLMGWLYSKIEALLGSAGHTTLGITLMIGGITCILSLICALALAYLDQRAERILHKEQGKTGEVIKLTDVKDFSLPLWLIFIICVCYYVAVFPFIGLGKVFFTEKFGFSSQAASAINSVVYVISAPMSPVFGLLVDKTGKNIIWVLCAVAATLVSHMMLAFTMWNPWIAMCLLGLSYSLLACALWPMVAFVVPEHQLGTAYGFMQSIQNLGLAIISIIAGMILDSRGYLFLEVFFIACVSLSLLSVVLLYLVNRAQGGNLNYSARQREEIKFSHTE
UniProt P48740: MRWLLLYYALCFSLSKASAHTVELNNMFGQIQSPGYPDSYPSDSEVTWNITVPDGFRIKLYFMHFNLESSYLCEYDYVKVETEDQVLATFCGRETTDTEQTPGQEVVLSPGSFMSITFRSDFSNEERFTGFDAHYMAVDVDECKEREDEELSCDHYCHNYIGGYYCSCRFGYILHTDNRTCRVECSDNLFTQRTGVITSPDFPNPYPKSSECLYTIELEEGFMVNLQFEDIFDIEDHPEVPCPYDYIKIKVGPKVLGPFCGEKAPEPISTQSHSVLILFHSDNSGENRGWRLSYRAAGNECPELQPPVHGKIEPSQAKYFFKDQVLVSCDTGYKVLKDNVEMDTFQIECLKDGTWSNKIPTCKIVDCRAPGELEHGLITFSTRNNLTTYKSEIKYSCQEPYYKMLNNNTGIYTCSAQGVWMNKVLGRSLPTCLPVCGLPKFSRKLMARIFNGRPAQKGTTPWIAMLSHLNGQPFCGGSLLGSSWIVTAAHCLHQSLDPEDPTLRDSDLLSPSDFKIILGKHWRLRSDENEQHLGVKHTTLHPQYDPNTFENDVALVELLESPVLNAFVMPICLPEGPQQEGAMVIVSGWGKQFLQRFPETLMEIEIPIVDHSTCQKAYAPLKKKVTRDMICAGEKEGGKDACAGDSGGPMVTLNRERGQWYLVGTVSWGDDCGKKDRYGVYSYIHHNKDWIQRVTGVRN
UniProt Q5VZF2: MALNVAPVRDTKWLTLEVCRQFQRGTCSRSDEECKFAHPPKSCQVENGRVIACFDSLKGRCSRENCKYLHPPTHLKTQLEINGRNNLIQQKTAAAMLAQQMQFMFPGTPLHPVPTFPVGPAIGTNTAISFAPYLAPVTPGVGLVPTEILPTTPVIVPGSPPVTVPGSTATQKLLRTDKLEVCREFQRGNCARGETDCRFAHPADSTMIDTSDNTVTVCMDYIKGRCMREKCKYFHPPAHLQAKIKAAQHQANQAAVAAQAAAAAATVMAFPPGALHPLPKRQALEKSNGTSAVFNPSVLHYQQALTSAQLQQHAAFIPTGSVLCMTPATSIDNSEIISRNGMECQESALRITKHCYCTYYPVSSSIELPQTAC

Tests used:
Assay in all cases: log2 fold change, soluble protein after heating vs DMSO (PISA); higher = thermal stabilisation; K562 cells, 10 uM, 30 min; active = over 0.2 and 3.5 SD of the protein, either way, in both replicates (recomputed)
sotrastaurin = compound: CN1CCN(c2nc(C3=C(c4c[nH]c5ccccc45)C(=O)NC3=O)c3ccccc3n2)CC1 [sotrastaurin]
How it was run: (§1)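 Quantification of soluble protein used TMTpro 16plex LC-MS/MS, with channel sums equalised. Samples were the supernatant after 21,000xg for 90 min of pooled aliquots from K562 cells (2×10^6 cells/mL) treated with 10 μM compound for 30 min, heated for 3 min over 48°C-58°C, and extracted in PBS with 0.5% NP-40 at 4°C. Values, from duplicates, describe thermal stability against control samples on a log2 fold-change scale.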

alvocidib = compound: CN1CC[C@H](c2c(O)cc(O)c3c(=O)cc(-c4ccccc4Cl)oc23)[C@H](O)C1 [alvocidib]
How it was run: as §1

[1] = compound: CNC(=O)C1=CC=CC=C1NC2=NC(=NC=C2Cl)NC3=C(C=C(C=C3)N4CCOCC4)OC
How it was run: as §1

defactinib = compound: CNC(=O)c1ccc(Nc2ncc(C(F)(F)F)c(NCc3nccnc3N(C)S(C)(=O)=O)n2)cc1 [defactinib]
How it was run: as §1

rucaparib = compound: CNCc1ccc(-c2[nH]c3cc(F)cc4c3c2CCNC4=O)cc1 [rucaparib]
How it was run: as §1

encorafenib = compound: COC(=O)N[C@@H](C)CNc1nccc(-c2cn(C(C)C)nc2-c2cc(Cl)cc(NS(C)(=O)=O)c2F)n1 [encorafenib]
How it was run: as §1

[2] = compound: COC(=O)[C@H](CCSC)NC(=O)C1=C(C=C(C=C1)NC[C@H](CS)N)C2=CC=CC=C2
How it was run: as §1

[3] = compound: COC1=CC=C(C=C1)CN2C=CC3=C2C=C(C=C3)C(=O)NO
How it was run: as §1

filanesib = compound: CON(C)C(=O)N1N=C(c2cc(F)ccc2F)S[C@@]1(CCCN)c1ccccc1 [filanesib]
How it was run: as §1

zotarolimus = compound: CO[C@H]1C[C@@H]2CC[C@@H](C)[C@@](O)(O2)C(=O)C(=O)N2CCCC[C@H]2C(=O)O[C@H]([C@H](C)C[C@@H]2CC[C@H](n3cnnn3)[C@H](OC)C2)CC(=O)[C@H](C)/C=C(\C)[C@@H](O)[C@@H](OC)C(=O)[C@H](C)C[C@H](C)/C=C/C=C/C=C/1C [zotarolimus]
How it was run: as §1

alisertib = compound: COc1cc(Nc2ncc3c(n2)-c2ccc(Cl)cc2C(c2c(F)cccc2OC)=NC3)ccc1C(=O)O [alisertib]
How it was run: as §1

gefitinib = compound: COc1cc2ncnc(Nc3ccc(F)c(Cl)c3)c2cc1OCCCN1CCOCC1 [gefitinib]
How it was run: as §1

[4] = compound: COc1cccc2cc(-c3nc([C@H]4CC[C@H](C(=O)O)CC4)n4ncnc(N)c34)[nH]c12
How it was run: as §1

pictilisib = compound: CS(=O)(=O)N1CCN(Cc2cc3nc(-c4cccc5[nH]ncc45)nc(N4CCOCC4)c3s2)CC1 [pictilisib]
How it was run: as §1

saracatinib = compound: CN1CCN(CCOc2cc(OC3CCOCC3)c3c(Nc4c(Cl)ccc5c4OCO5)ncnc3c2)CC1 [saracatinib]
How it was run: as §1

Tubastatin A = compound: CN1CCc2c(c3ccccc3n2Cc2ccc(C(=O)NO)cc2)C1 [Tubastatin A]
How it was run: as §1

[5] = compound: CNc1nc(-c2ccc3c(N)n[nH]c3c2)cc(N2C[C@@H](C(=O)NC3CCCCC3)CC[C@H]2C)n1
How it was run: as §1

idasanutlin = compound: COc1cc(C(=O)O)ccc1NC(=O)[C@@H]1N[C@@H](CC(C)(C)C)[C@](C#N)(c2ccc(Cl)cc2F)[C@H]1c1cccc(Cl)c1F [idasanutlin]
How it was run: as §1

[6] = compound: COc1cc2nc(-c3cc(F)ccc3O)nc(N[C@@H]3CNC[C@H]3C(C)(C)O)c2cc1OC
How it was run: as §1

lapatinib = compound: CS(=O)(=O)CCNCc1ccc(-c2ccc3ncnc(Nc4ccc(OCc5cccc(F)c5)c(Cl)c4)c3c2)o1 [lapatinib]
How it was run: as §1

Measured: log2 fold change

MED6 (UniProt O75586)
inactive: sotrastaurin 0.159 | alvocidib -0.132 | [1] -0.032 | defactinib 0.025 | rucaparib -0.035 | encorafenib -0.045 | [2] 0.044 | [3] 0.183 | filanesib -0.189 | zotarolimus 0.036 | alisertib -0.005 | gefitinib -0.105 | [4] 0.126 | pictilisib 0.066

METTL9 (UniProt Q9H1A3)
inactive: saracatinib 0.056 | alvocidib 0.098 | Tubastatin A 0.068 | [1] -0.037 | defactinib -0.086 | [5] -0.24 | [2] -0.028 | zotarolimus 0.113 | idasanutlin 0 | alisertib 0.046 | [6] 0.014 | [4] -0.007 | lapatinib -0.094 | pictilisib -0.061

METTL7B (UniProt Q6UX53)
inactive: [1] -0.011 | idasanutlin 0.095 | pictilisib 0.117

MBNL1 isoform 5 (UniProt Q9NR56)
inactive: sotrastaurin -0.014 | Tubastatin A -0.032 | rucaparib 0.199 | encorafenib -0.25 | [3] 0.091 | filanesib -0.142 | alisertib -0.038 | gefitinib 0.013 | [4] -0.02

Two entries drawn at random from those above:
METTL9 (UniProt Q9H1A3)
inactive: saracatinib 0.056 | alvocidib 0.098 | Tubastatin A 0.068 | [1] -0.037 | defactinib -0.086 | [5] -0.24 | [2] -0.028 | zotarolimus 0.113 | idasanutlin 0 | alisertib 0.046 | [6] 0.014 | [4] -0.007 | lapatinib -0.094 | pictilisib -0.061

METTL7B (UniProt Q6UX53)
inactive: [1] -0.011 | idasanutlin 0.095 | pictilisib 0.117

Carrying on.

MIB1 (UniProt Q86YT6)
inactive: sotrastaurin 0.159 | alvocidib -0.034 | Tubastatin A -0.086 | [1] -0.043 | defactinib -0.042 | rucaparib 0.14 | encorafenib -0.146 | [2] -0.105 | [3] -0.298 | filanesib 0.048 | zotarolimus 0.208 | idasanutlin 0.039 | alisertib -0.016 | [4] 0.21 | pictilisib -0.016

METTL15 (UniProt A6NJ78)
inactive: saracatinib -0.067 | Tubastatin A 0.076 | [5] 0.13 | idasanutlin -0.228

MEGF10 (UniProt Q96KG7)
inactive: Tubastatin A -0.1 | [6] -0.044 | lapatinib 0.136

MEF2C isoform 2 (UniProt Q06413)
inactive: Tubastatin A 0.015 | rucaparib -0.031 | encorafenib 0.13

MED9 (UniProt Q9NWA0)
inactive: saracatinib 0.074 | rucaparib 0.013 | [5] 0.027 | encorafenib -0.091 | [3] -0.071 | alisertib -0.117 | gefitinib -0.071 | [4] 0.073 | pictilisib 0.163

MBTPS2 (UniProt O43462)
inactive: saracatinib 0.15 | alvocidib -0.037 | Tubastatin A -0.108 | [1] -0.054 | defactinib 0.093 | [5] 0.03 | [2] -0.016 | [3] -0.13 | zotarolimus 0.203 | [6] -0.544 | gefitinib 0.025 | lapatinib 0.163 | pictilisib 0.168

MED19 (UniProt A0JLT2)
inactive: sotrastaurin -0.014 | defactinib 0.069 | rucaparib 0.209 | encorafenib 0.042 | [2] -0.15 | [3] 0.365 | filanesib 0.437 | alisertib -0.052 | gefitinib -0.118 | [4] -0.132 | pictilisib 0.415

MAU2 (UniProt Q9Y6X3)
inactive: sotrastaurin -0.143 | Tubastatin A 0.019 | [1] 0.146 | defactinib -0.099 | [2] -0.041 | filanesib -0.304 | alisertib -0.104 | [6] 0.03 | [4] 0.091 | lapatinib -0.05 | pictilisib 0.215

METTL17 isoform 3 (UniProt Q9H7H0)
inactive: sotrastaurin -0.055 | alvocidib 0.038 | rucaparib 0.05 | encorafenib -0.044 | filanesib 0.162 | zotarolimus 0.003 | idasanutlin 0.056 | alisertib -0.078 | [6] 0.149 | [4] 0.059 | lapatinib 0.059

MGRN1 isoform 2 (UniProt O60291)
inactive: Tubastatin A 0.197 | [1] -0.054 | [3] -0.015 | zotarolimus -0.017 | idasanutlin -0.108 | [6] 0.069 | lapatinib -0.238 | pictilisib -0.004

MFSD1 isoform 6 (UniProt Q9H3U5)
inactive: sotrastaurin -0.041 | Tubastatin A -0.039 | [1] 0.066 | defactinib 0.046 | rucaparib -0.014 | encorafenib -0.028 | [2] -0.004 | filanesib -0.123 | zotarolimus -0.108 | idasanutlin -0.01 | alisertib -0.035 | [6] 0.019 | gefitinib -0.021 | [4] 0.181 | lapatinib -0.026 | pictilisib 0.055

MASP1 isoform 2 (UniProt P48740)
inactive: sotrastaurin 0.084 | alvocidib -0.008 | filanesib -0.178 | zotarolimus 0.019 | pictilisib -0.143

MBNL2 (UniProt Q5VZF2)
inactive: [1] 0.037 | [3] -0.303 | idasanutlin 0 | [6] 0.055 | lapatinib -0.031 | pictilisib -0.038

METTL26 (UniProt Q96S19)
inactive: [1] 0.151 | rucaparib 0.017 | encorafenib 0.025 | alisertib 0.039 | [6] -0.032 | gefitinib 0 | [4] 0.066 | lapatinib -0.11
